This passage reports cell viability results from the supplement of paper PMC8699584.

The subject of one assay is Mv4-11. The experiment in a line: cell viability relative to DMSO control (bortezomib = 0%); higher = less growth inhibition. The settings on record: 10 nM; 72 h. The method, boiled down: (§1)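 Cell viability was assessed by CellTiter-Glo luminescence. Acute myeloid leukemia cells were seeded at 1000 cells per well in 50 µL on a 384-well library of 679 compounds at a single 10 nM dose for 72 h. Per-plate linear regression set DMSO-treated cells at 100% and positive-control-treated cells at 0%.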

The next assay relates to Molm13. The assay is described as above. The settings on record: 10 nM; 72 h. In a few lines:
as §1

± gives the standard deviation of the averaged measurements. Only a part is listed here, and it is no random draw.

The term cell viability denotes a read-out of living cells in per cent, often relative to untreated cells.

`Cc1ccccc1-n1c(Cn2nc(-c3cccc(O)c3)c3c(N)ncnc32)nc2cccc(C)c2c1=O`: the cell viability worked out at 91.2 ± 11% in the assay on Mv4-11 and 88.9 ± 6.4% in the assay on Molm13.

For the molecule `COc1cc(N2CCN(C(C)=O)CC2)ccc1Nc1ncc(Cl)c(Nc2ccc(N3CCN(C(C)=O)CC3)cc2OC)n1`, the cell viability in the assay on Mv4-11 worked out at 109.6 ± 0.24%; in the assay with Molm13, 117 ± 29%.
